Among the data in publication PMC4761948 are binding values, retold here.

The chains behind the UniProt entries cited, without tags or fusion partners. Where a name states a change or a piece, a line headed by the entry shows the natural chain unless it says otherwise.
UniProt P23771: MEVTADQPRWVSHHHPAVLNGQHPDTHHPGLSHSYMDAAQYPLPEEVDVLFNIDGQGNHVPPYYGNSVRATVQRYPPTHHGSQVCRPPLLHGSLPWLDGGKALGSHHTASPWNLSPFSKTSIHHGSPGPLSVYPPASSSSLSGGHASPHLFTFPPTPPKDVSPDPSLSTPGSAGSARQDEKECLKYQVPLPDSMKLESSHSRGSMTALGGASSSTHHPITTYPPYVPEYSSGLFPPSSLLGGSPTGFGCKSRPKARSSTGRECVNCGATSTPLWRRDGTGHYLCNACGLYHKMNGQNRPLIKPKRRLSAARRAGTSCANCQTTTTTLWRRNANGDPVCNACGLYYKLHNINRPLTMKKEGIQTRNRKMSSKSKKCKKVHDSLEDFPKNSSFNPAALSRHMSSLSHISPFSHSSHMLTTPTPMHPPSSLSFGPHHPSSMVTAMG

No constants are given. Whether binding was seen depends on the method and setting. In cells and extracts the contact can be indirect. A result given as binding can be weak or reduced; the word gives no strength. Sequences can lack the tags named with a protein.

For the assay, the target named is T1, HA-GCM1 (human) (UniProt Q9NP62).
T1 sequence: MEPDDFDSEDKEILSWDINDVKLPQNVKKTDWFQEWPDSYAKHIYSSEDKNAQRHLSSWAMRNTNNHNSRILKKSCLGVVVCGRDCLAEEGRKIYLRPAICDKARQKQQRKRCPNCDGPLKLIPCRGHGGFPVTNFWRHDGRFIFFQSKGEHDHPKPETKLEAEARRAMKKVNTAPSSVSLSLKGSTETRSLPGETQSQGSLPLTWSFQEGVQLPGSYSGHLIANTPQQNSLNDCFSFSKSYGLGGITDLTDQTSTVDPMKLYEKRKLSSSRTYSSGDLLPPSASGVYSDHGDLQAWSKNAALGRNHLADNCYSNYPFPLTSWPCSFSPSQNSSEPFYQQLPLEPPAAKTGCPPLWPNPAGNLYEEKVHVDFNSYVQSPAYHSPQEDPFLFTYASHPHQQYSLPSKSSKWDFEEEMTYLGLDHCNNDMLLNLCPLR
Nature of the assay: co-IP; Supplementary Figure 2; transient expression of Gal4-GATA3ΔZF1-FLAG and HA-GCM1; the method is not named in the sentence and is taken from the paragraph's mapping by coimmunoprecipitation.

In the case of “Gal4-GATA3ΔZF1-FLAG (from UniProt P23771)”, the binding entry is recorded as “binds”.
